Values quoted from earlier work, collected in US8889354B2, “Methods for the identification, assessment, and treatment of patients with cancer therapy” (Millennium Pharmaceuticals, Inc., priority 2005, dated 2014).
At least one compound was matched to its structure with a doubt left.

Test system: relapsed myeloma
Conditions: estimated; cited from earlier work

SMILES: C[C@@H]1C[C@H]2[C@@H]3CCC4=CC(=O)C=C[C@]4(C)[C@@]3(F)[C@@H](O)C[C@]2(C)[C@@]1(O)C(=O)CO [dexamethasone]
- share of the effect of VAD accounted for by the dexamethasone component: 85%
